Data: publication PMC12019163

Assays:
[1] = molecular target: GFP-tagged SH3KBP1 C-terminal part (human); assay: co-IP; GFP-tagged SH3KBP1 constructs expressed in C2C12 cells; GFP trap assay on cell extracts; blots with anti-ERP72, anti-Calnexin (endogenous proteins) and anti-GFP
[2] = molecular target: GFP-tagged coiled-coil domain of the C-terminus part of SH3KBP1 (human); assay: as above

binding [1]: binds | binding [2]: no binding
B1: Calnexin (protein, UniProt P35564 21-591)
chain: HDGHDDDAIDIEDDLDDVIEEVEDSKSKSDASTPPSPKVTYKAPVPTGEVYFADSFDRGSLSGWILSKAKKDDTDDEIAKYDGKWEVDEMKETKLPGDKGLVLMSRAKHHAISAKLNKPFLFDTKPLIVQYEVNFQNGIECGGAYVKLLSKTAELSLDQFHDKTPYTIMFGPDKCGEDYKLHFIFRHKNPKTGVYEEKHAKRPDADLKTYFTDKKTHLYTLILNPDNSFEILVDQSVVNSGNLLNDMTPPVNPSREIEDPEDRKPEDWDERPKIADPDAVKPDDWDEDAPSKIPDEEATKPEGWLDDEPEYIPDPDAEKPEDWDEDMDGEWEAPQIANPKCESAPGCGVWQRPMIDNPNYKGKWKPPMIDNPNYQGIWKPRKIPNPDFFEDLEPFKMTPFSAIGLELWSMTSDIFFDNFIISGDRRVVDDWANDGWGLKKAADGAAEPGVVLQMLEAAEERPWLWVVYILTVALPVFLVILFCCSGKKQSNAMEYKKTDAPQPDVKDEEGKEEEKNKRDEEEEEEKLEEKQKSDAEEDGVTGSQDEEDSKPKAEEDEILNRSPRNRKPRRE

No constants are given. Whether binding was seen depends on the method and setting. Binding seen in cells or lysates may run through a third protein. For some assays here: A result given as binding can be weak or reduced; the word gives no strength.
